For two molecules, binding results are on record in publication PMC9698719.

No constants are given. Whether binding was seen depends on the method and setting. In cells and extracts the contact can be indirect. Some binding calls cover weakened binding; strength is not graded here. For some assays here: Tags and fused reporters may be left off the sequences shown.

The target in assay [1] is cyclin-dependent kinase 5 (Cdk5), overexpressed in HEK293T cells (UniProt Q00535). In words: co-IP; lysate of HEK293T cells overexpressing Cdk5 and cPLA2; Cdk5 IPs blotted with cPLA2 antibody and cPLA2 IPs blotted with Cdk5 antibody; A/G Sepharose beads, wash buffer 50 mM Tris pH 8.5, 1 mM EGTA, 75 mM KCl.
Assay [2] has as its target cyclin-dependent kinase 5 (Cdk5), endogenous in mouse brain lysate (mouse (endogenous in brain)) (UniProt P49615). The experiment in a line: co-IP; mouse brain lysate; Cdk5 IPs blotted with cPLA2 antibody and cPLA2 IPs blotted with Cdk5 antibody; A/G Sepharose beads, wash buffer 50 mM Tris pH 8.5, 1 mM EGTA, 75 mM KCl.

B1: human cytosolic phospholipase A2 (cPLA2) wild type, 6xHis-tagged, overexpressed in HEK293T cells (enzyme, UniProt P47712 1-749)
chain: MSFIDPYQHIIVEHQYSHKFTVVVLRATKVTKGAFGDMLDTPDPYVELFISTTPDSRKRTRHFNNDINPVWNETFEFILDPNQENVLEITLMDANYVMDETLGTATFTVSSMKVGEKKEVPFIFNQVTEMVLEMSLEVCSCPDLRFSMALCDQEKTFRQQRKEHIRESMKKLLGPKNSEGLHSARDVPVVAILGSGGGFRAMVGFSGVMKALYESGILDCATYVAGLSGSTWYMSTLYSHPDFPEKGPEEINEELMKNVSHNPLLLLTPQKVKRYVESLWKKKSSGQPVTFTDIFGMLIGETLIHNRMNTTLSSLKEKVNTAQCPLPLFTCLHVKPDVSELMFADWVEFSPYEIGMAKYGTFMAPDLFGSKFFMGTVVKKYEENPLHFLMGVWGSAFSILFNRVLGVSGSQSRGSTMEEELENITTKHIVSNDSSDSDDESHEPKGTENEDAGSDYQSDNQASWIHRMIMALVSDSALFNTREGRAGKVHNFMLGLNLNTSYPLSPLSDFATQDSFDDDELDAAVADPDEFERIYEPLDVKSKKIHVVDSGLTFNLPYPLILRPQRGVDLIISFDFSARPSDSSPPFKELLLAEKWAKMNKLPFPKIDPYVFDREGLKECYVFKPKNPDMEKDCPTIIHFVLANINFRKYRAPGVPRETEEEKEIADFDIFDDPESPFSTFNFQYPNQAFKRLHDLMHFNTLNNIDVIKEAMVESIEYRRQNPSRCSVSLSNVEARRFFNKEFLSKPKA
Regarding B1, the binding result in assay [1] is recorded as “binds”.

B2: cytosolic phospholipase A2 (cPLA2), endogenous in mouse brain lysate (enzyme, UniProt P47713 1-748)
chain: MSFIDPYQHIIVEHQYSHKFTVVVLRATKVTKGTFGDMLDTPDPYVELFISTTPDSRKRTRHFNNDINPVWNETFEFILDPNQENVLEITLMDANYVMDETLGTATFPVSSMKVGEKKEVPFIFNQVTEMILEMSLEVCSCPDLRFSMALCDQEKTFRQQRKENIKENMKKLLGPKKSEGLYSTRDVPVVAILGSGGGFRAMVGFSGVMKALYESGILDCATYIAGLSGSTWYMSTLYSHPDFPEKGPEEINEELMKNVSHNPLLLLTPQKVKRYVESLWKKKSSGQPVTFTDIFGMLIGETLIQNRMSMTLSSLKEKVNAARCPLPLFTCLHVKPDVSELMFADWVEFSPYEIGMAKYGTFMAPDLFGSKFFMGTVVKKYEENPLHFLMGVWGSAFSILFNRVLGVSGSQNKGSTMEEELENITAKHIVSNDSSDSDDEAQGPKGTENEEAEKEYQSDNQASWVHRMLMALVSDSALFNTREGRAGKVHNFMLGLNLNTSYPLSPLRDFSSQDSFDDELDAAVADPDEFERIYEPLDVKSKKIHVVDSGLTFNLPYPLILRPQRGVDLIISFDFSARPSDTSPPFKELLLAEKWAKMNKLPFPKIDPYVFDREGLKECYVFKPKNPDVEKDCPTIIHFVLANINFRKYKAPGVLRETKEEKEIADFDIFDDPESPFSTFNFQYPNQAFKRLHDLMYFNTLNNIDVIKDAIVESIEYRRQNPSRCSVSLSNVEARKFFNKEFLSKPTV
B2: the binding entry in assay [2] was “binds”.
